Source: the supplement of paper PMC5836539
± gives the standard deviation of the averaged measurements. This data set is noisy: repeats of one test often differ as much as different tests do.

Protein sequences, listed by entry. Tags and fused reporters are not part of them. Lines headed by an entry give the natural chain unless they say otherwise; changes in a name come on top.
UniProt Q96B97, whole entry, looked up: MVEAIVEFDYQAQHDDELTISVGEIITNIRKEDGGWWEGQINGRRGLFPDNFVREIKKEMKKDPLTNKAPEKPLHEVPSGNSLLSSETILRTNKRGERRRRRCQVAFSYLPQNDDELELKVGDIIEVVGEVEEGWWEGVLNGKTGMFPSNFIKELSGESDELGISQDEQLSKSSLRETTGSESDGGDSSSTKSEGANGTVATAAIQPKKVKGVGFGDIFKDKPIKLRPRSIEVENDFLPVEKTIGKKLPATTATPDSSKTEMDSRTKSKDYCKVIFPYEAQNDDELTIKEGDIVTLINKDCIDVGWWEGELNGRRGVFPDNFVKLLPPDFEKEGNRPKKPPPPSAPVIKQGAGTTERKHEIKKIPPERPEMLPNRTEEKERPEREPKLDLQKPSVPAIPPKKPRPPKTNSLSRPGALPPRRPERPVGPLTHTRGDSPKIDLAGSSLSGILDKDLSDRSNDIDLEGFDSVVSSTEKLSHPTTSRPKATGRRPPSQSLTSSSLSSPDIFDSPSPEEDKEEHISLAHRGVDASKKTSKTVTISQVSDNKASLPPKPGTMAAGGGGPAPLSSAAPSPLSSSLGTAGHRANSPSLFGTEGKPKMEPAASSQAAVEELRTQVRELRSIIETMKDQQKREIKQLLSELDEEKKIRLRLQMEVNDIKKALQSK
UniProt Q96CV9, whole entry, looked up: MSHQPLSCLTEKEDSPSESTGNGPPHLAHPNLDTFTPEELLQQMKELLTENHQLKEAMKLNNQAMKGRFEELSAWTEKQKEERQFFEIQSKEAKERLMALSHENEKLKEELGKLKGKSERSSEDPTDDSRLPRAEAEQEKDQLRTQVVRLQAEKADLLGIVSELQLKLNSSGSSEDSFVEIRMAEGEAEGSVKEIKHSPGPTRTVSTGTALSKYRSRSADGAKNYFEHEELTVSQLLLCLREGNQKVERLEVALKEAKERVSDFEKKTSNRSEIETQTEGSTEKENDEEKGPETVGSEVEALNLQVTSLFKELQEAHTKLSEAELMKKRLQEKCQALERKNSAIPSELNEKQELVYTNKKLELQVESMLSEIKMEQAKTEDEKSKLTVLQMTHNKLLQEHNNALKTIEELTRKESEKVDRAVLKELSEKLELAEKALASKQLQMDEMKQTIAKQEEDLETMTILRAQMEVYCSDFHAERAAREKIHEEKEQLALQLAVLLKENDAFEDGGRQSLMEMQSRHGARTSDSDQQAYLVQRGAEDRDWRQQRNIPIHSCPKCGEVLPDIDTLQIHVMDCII
UniProt Q96TA0: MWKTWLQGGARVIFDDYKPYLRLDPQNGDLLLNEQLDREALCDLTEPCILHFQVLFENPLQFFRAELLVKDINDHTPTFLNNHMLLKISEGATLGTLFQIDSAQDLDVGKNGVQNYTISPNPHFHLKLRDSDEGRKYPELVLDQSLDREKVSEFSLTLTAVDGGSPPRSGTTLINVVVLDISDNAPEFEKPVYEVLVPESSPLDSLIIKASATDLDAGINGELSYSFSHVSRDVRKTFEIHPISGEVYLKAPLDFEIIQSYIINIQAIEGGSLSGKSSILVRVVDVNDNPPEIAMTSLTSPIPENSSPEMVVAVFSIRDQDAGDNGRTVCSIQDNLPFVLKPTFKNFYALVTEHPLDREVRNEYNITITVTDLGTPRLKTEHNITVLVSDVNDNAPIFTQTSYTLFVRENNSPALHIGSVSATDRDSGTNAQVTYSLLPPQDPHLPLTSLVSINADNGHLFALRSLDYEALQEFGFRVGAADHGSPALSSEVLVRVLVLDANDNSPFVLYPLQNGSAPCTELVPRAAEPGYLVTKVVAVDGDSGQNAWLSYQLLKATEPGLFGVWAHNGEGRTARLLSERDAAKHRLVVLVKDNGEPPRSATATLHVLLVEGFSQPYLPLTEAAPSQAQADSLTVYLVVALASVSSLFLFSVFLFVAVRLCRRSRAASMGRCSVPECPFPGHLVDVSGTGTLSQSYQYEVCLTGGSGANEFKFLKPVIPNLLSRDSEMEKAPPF
UniProt Q01105, whole entry, looked up: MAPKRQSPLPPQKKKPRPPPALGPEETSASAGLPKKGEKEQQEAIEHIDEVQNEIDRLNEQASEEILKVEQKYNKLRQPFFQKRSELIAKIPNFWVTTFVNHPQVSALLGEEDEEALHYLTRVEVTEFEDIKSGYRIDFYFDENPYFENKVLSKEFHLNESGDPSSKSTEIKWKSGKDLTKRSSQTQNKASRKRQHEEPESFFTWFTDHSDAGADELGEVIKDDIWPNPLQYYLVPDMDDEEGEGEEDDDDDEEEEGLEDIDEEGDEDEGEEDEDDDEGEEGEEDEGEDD
UniProt Q05655: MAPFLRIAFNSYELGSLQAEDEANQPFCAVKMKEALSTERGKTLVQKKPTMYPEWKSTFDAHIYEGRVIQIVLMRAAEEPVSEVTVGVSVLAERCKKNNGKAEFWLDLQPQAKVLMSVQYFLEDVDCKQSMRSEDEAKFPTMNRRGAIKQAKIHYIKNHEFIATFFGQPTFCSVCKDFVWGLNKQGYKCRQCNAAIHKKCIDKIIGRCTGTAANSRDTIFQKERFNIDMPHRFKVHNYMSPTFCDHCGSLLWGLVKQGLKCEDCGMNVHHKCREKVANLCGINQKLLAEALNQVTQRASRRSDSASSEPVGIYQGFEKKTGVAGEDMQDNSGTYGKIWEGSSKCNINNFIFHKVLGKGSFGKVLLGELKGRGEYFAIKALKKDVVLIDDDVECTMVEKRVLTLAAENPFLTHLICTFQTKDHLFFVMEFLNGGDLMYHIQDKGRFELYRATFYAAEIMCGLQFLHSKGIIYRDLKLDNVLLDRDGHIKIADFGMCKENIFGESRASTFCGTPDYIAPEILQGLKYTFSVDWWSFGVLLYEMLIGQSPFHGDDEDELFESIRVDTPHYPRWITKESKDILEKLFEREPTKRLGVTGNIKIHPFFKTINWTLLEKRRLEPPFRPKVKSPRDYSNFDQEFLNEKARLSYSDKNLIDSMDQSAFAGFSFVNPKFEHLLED
UniProt Q13017, whole entry, looked up: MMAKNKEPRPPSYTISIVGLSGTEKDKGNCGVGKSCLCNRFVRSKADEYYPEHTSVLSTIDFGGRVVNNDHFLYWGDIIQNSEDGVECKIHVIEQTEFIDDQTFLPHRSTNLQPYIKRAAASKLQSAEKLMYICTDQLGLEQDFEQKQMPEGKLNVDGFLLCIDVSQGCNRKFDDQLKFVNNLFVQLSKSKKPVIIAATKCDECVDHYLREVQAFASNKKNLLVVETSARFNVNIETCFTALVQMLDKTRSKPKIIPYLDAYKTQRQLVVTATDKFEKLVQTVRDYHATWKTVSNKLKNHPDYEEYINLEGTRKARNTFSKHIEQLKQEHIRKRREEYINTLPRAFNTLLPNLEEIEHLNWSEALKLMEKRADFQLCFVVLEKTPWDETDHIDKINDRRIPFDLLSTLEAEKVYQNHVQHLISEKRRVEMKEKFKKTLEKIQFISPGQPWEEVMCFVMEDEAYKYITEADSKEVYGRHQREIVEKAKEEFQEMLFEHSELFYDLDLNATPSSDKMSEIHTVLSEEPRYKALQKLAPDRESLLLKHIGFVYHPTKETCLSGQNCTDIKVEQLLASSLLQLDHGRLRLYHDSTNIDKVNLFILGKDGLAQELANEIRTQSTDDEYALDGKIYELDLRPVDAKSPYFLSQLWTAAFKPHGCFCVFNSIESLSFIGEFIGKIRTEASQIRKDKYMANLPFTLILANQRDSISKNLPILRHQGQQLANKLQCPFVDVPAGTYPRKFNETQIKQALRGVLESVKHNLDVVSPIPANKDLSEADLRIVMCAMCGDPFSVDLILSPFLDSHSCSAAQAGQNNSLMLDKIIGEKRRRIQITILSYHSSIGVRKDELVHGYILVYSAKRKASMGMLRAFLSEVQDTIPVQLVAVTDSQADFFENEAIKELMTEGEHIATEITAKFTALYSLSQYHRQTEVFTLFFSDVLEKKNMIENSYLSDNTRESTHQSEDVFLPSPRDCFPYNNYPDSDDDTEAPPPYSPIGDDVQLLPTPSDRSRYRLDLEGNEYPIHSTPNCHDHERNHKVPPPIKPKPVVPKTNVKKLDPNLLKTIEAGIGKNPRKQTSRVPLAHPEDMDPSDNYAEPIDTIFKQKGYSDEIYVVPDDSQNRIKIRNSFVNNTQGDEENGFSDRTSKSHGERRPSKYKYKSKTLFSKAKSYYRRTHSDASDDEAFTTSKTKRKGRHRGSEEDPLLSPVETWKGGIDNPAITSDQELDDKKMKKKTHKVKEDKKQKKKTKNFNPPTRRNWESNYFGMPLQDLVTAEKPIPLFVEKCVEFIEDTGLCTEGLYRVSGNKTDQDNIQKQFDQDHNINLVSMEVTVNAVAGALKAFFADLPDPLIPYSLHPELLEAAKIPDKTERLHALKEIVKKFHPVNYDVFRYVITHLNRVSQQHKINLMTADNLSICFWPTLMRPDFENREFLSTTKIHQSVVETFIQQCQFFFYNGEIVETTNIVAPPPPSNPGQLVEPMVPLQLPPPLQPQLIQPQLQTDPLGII
UniProt Q13131: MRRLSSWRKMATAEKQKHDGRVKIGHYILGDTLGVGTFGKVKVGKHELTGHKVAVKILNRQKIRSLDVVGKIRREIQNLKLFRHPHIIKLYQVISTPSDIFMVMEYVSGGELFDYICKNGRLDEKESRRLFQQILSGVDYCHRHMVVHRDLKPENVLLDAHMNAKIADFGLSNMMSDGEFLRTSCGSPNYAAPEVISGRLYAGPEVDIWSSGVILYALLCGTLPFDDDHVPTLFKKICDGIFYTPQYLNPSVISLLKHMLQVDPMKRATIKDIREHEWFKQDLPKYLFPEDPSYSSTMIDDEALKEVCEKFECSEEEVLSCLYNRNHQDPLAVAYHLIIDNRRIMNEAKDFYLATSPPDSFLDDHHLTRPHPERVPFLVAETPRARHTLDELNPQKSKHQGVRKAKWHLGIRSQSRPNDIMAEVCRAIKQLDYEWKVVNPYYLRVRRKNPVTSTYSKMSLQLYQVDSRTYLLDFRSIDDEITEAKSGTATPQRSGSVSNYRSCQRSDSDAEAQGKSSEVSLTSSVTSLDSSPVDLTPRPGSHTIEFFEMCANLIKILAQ
UniProt Q13242, whole entry: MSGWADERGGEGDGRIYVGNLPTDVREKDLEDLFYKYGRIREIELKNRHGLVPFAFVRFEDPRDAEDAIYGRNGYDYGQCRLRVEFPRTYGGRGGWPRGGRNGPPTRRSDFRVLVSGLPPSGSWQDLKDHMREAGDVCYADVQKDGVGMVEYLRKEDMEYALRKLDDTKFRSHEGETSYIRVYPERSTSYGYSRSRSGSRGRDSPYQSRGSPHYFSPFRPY
UniProt Q86U90: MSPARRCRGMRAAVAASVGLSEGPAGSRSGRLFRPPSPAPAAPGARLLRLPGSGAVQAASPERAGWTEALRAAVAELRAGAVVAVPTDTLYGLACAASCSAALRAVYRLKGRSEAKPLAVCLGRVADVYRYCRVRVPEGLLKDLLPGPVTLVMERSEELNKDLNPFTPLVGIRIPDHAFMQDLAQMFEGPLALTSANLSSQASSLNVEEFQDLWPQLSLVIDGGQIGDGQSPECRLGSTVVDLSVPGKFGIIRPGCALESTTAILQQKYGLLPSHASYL
UniProt O95365: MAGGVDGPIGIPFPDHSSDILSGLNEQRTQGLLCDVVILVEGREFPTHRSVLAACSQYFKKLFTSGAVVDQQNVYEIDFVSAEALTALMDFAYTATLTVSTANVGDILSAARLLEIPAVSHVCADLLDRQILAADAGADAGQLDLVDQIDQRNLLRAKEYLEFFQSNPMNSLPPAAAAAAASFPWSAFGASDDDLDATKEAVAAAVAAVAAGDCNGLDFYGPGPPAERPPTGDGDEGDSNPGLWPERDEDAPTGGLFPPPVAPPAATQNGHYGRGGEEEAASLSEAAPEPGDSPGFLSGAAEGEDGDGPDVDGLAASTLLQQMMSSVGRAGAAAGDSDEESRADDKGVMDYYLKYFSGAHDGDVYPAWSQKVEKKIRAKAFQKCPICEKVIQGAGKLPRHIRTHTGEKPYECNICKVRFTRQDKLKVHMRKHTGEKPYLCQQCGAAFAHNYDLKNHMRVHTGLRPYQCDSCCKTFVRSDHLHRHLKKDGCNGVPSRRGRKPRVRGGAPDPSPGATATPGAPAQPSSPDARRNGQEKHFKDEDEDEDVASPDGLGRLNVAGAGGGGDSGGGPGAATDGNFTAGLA
UniProt Q86WB0: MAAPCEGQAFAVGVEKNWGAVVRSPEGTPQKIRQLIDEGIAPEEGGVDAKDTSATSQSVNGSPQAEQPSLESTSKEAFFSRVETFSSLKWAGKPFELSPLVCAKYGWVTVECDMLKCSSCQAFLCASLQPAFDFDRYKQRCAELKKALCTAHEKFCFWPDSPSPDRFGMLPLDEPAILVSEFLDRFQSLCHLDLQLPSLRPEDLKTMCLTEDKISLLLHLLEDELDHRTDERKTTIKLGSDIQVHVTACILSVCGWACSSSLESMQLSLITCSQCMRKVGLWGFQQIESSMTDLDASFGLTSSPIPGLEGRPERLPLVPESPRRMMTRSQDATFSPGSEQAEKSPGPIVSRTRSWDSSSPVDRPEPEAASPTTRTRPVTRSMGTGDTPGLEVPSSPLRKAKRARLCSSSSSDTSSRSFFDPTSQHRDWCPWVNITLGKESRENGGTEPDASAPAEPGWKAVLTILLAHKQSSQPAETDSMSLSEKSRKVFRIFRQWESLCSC

Compound: CC[C@@H](C)Nc1cc(C(=O)N[C@H]2C[C@H]3CC[C@@H](C2)N3c2ccc(C(=O)C3CC3)cn2)c(C)cc1C(N)=O [XL888]
Assay: phosphopeptide melting temperature shift (XL888 minus DMSO); higher = stabilised by drug treatment
Conditions: 100 µM; treatment time 2 h; layout: intact cells; SK-Mel 24
Protocol: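 Phospho-TPP in intact SK-Mel 24 cells treated with 100 uM XL888 or DMSO for 2 h, heated at 10 temperatures (37-67 C) for 3 min, soluble fraction TMT10plex-labelled and TiO2 phospho-enriched. Melting curves were fitted per phosphopeptide; the value is the melting point difference (drug minus vehicle) in each of two biological replicates.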

Row | Target | phosphopeptide melting temperature shift
1 | UniProt Q86W92-3_phosphosite_387 (phosphosite position: 387) | 0.549 °C
2 | UniProt Q96B97-2_phosphosite_550 (phosphosite position: 550) | -0.359 °C
3 | UniProt Q96CA5_phosphosite_37 (phosphosite position: 37) | -1.66 °C
4 | UniProt Q96CV9-3_phosphosite_468 (phosphosite position: 468) | 2.19 °C
5 | UniProt Q96CV9-3_phosphosite_469 (phosphosite position: 469) | 0.126 °C
6 | UniProt Q96I15-2_phosphosite_129 (phosphosite position: 129) | 1.73 ± 0.85 °C
7 | UniProt Q96K21-2_phosphosite_134 (phosphosite position: 134) | 1.79 °C
8 | UniProt Q96K21-3_phosphosite_286 (phosphosite position: 286) | 3.46 °C
9 | UniProt Q96PU5-9_phosphosite_307 (phosphosite position: 307) | 0.231 °C
10 | UniProt Q96RR4-6_phosphosite_100 (phosphosite position: 100) | 0.242 ± 0.064 °C
11 | UniProt Q96S55-2_phosphosite_133 (phosphosite position: 133) | -0.708 ± 0.76 °C
12 | UniProt Q96S55-2_phosphosite_153 (phosphosite position: 153) | -0.591 °C
13 | UniProt Q96T37-4_phosphosite_248 (phosphosite position: 248) | -0.413 °C
14 | UniProt Q96TA0_phosphosite_131 (phosphosite position: 131) | -0.328 °C
15 | UniProt Q96TA1-2_phosphosite_679 (phosphosite position: 679) | 0.137 °C
16 | UniProt Q00341_phosphosite_31 (phosphosite position: 31) | -0.256 °C
17 | UniProt Q641Q2-2_phosphosite_728 (phosphosite position: 728) | -1.89 °C
18 | UniProt Q641Q2-2_phosphosite_802 (phosphosite position: 802) | -0.375 °C
19 | UniProt Q01105-2_phosphosite_23 (phosphosite position: 23) | -0.66 °C

Row | Target | phosphopeptide melting temperature shift
20 | UniProt Q02241-3_phosphosite_503 (phosphosite position: 503) | 5.7 °C
21 | UniProt Q04637-6_phosphosite_1013 (phosphosite position: 1013) | -1.02 °C
22 | UniProt Q04637-6_phosphosite_1015 (phosphosite position: 1015) | -0.415 ± 0.32 °C
23 | UniProt Q05209-2_phosphosite_543 (phosphosite position: 543) | -0.175 °C
24 | UniProt Q05519-2_phosphosite_207 (phosphosite position: 207) | 0.475 °C
25 | UniProt Q05519-2_phosphosite_433 (phosphosite position: 433) | 0.888 °C
26 | UniProt Q05655_phosphosite_645 (phosphosite position: 645) | -0.331 ± 0.33 °C
27 | UniProt Q06210-2_phosphosite_243 (phosphosite position: 243) | -4.9 °C
28 | UniProt Q13017-2_phosphosite_1218 (phosphosite position: 1218) | 0.423 °C
29 | UniProt Q13131_phosphosite_498 (phosphosite position: 498) | -0.249 °C
30 | UniProt Q13242_phosphosite_221 (phosphosite position: 221) | 1.99 °C
31 | UniProt Q13367-3_phosphosite_240 (phosphosite position: 240) | -0.197 °C
32 | UniProt Q13428-6_phosphosite_906 (phosphosite position: 906) | -0.137 ± 0.29 °C
33 | UniProt Q13428-6_phosphosite_1190 (phosphosite position: 1190) | -1.57 °C
34 | UniProt Q13459-2_phosphosite_1115 (phosphosite position: 1115) | 1.07 °C
35 | UniProt Q13459-2_phosphosite_1281 (phosphosite position: 1281) | 0.477 ± 0.21 °C
36 | UniProt Q13459-2_phosphosite_1290 (phosphosite position: 1290) | -0.126 °C
37 | UniProt Q13459-2_phosphosite_1354 (phosphosite position: 1354) | 1.01 °C
38 | UniProt Q13625-2_phosphosite_575 (phosphosite position: 575) | 0.663 ± 0.026 °C

Part of the list above, in CSV form.
Row,Target,phosphopeptide melting temperature shift
2,UniProt Q96B97-2_phosphosite_550 (phosphosite position: 550),-0.359 °C
3,UniProt Q96CA5_phosphosite_37 (phosphosite position: 37),-1.66 °C
4,UniProt Q96CV9-3_phosphosite_468 (phosphosite position: 468),2.19 °C
5,UniProt Q96CV9-3_phosphosite_469 (phosphosite position: 469),0.126 °C
6,UniProt Q96I15-2_phosphosite_129 (phosphosite position: 129),1.73 ± 0.85 °C
7,UniProt Q96K21-2_phosphosite_134 (phosphosite position: 134),1.79 °C
8,UniProt Q96K21-3_phosphosite_286 (phosphosite position: 286),3.46 °C
9,UniProt Q96PU5-9_phosphosite_307 (phosphosite position: 307),0.231 °C
10,UniProt Q96RR4-6_phosphosite_100 (phosphosite position: 100),0.242 ± 0.064 °C
11,UniProt Q96S55-2_phosphosite_133 (phosphosite position: 133),-0.708 ± 0.76 °C
12,UniProt Q96S55-2_phosphosite_153 (phosphosite position: 153),-0.591 °C
13,UniProt Q96T37-4_phosphosite_248 (phosphosite position: 248),-0.413 °C

The listing continues:

Row | Target | phosphopeptide melting temperature shift
39 | UniProt Q13627-3_phosphosite_321 (phosphosite position: 321) | -1.24 °C
40 | UniProt Q13671-2_phosphosite_351 (phosphosite position: 351) | 0.656 °C
41 | UniProt Q14195-2_phosphosite_636 (phosphosite position: 636) | 2.9 °C
42 | UniProt Q14241_phosphosite_151 (phosphosite position: 151) | -0.61 ± 0.12 °C
43 | UniProt Q14498-2_phosphosite_97 (phosphosite position: 97) | 0.395 °C
44 | UniProt Q14693-6_phosphosite_168 (phosphosite position: 168) | -1.63 °C
45 | UniProt Q15139_phosphosite_742 (phosphosite position: 742) | -3.01 °C
46 | UniProt Q15642-4_phosphosite_296 (phosphosite position: 296) | -0.287 °C
47 | UniProt Q16181-2_phosphosite_333 (phosphosite position: 333) | 0.41 ± 0.94 °C
48 | UniProt Q16555-2_phosphosite_473 (phosphosite position: 473) | 1.93 ± 1.7 °C
49 | UniProt Q16875-3_phosphosite_441 (phosphosite position: 441) | -0.163 °C
50 | XPO5 phosphosite_416 (phosphosite position: 416) (UniProt Q9HAV4) | -2.39 °C
51 | YRDC phosphosite_37 (phosphosite position: 37) (UniProt Q86U90) | 0.0367 ± 0.37 °C
52 | YWHAZ phosphosite_207 (phosphosite position: 207) (UniProt P63104) | 0.225 °C
53 | ZBTB7A phosphosite_337 (phosphosite position: 337) (UniProt O95365) | -0.93 °C
54 | ZC3H18 phosphosite_893 (phosphosite position: 893) (UniProt Q86VM9) | -3.42 °C
55 | ZC3HC1 phosphosite_321 (phosphosite position: 321) (UniProt Q86WB0) | -0.577 ± 0.16 °C
56 | ZC3HC1 phosphosite_395 (phosphosite position: 395) (UniProt Q86WB0) | -0.325 °C
